The values below come from PMC7308332.

The target in assay [1] is T1, LexA-Cdc24 (two-hybrid bait) (S. cerevisiae) (UniProt P11433).
T1 sequence: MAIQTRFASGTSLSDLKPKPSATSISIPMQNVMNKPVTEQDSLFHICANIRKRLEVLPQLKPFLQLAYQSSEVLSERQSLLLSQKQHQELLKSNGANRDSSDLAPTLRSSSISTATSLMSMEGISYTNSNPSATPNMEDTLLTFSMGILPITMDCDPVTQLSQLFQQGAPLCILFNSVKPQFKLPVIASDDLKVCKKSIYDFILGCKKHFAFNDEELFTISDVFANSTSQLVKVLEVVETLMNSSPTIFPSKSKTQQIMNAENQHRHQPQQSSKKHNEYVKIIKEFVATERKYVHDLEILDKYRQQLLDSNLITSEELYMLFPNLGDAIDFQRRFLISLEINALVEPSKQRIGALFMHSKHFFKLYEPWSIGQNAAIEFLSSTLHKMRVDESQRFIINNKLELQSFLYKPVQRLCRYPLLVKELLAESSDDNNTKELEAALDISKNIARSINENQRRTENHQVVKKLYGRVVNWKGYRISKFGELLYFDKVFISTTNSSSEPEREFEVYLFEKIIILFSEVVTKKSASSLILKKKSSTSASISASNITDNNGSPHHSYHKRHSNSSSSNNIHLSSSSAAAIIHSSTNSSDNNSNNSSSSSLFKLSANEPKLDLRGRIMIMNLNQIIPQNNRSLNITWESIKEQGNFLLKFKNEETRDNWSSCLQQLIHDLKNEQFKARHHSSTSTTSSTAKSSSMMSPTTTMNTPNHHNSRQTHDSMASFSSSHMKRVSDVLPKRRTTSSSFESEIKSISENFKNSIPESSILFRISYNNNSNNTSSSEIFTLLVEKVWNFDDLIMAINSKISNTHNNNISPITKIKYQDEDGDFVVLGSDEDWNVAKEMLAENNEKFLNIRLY
The experiment in a line: two-hybrid; LexA bait (pEG202) and B42AD-HA preys (pJG4-5) in EGY48 with LexAop-LacZ reporter (pSH18-34); patches on raffinose/galactose X-Gal plates, overnight at 28 °C; confirmed by a liquid β-galactosidase assay.

Assay [2] addresses T2, Cdc24-GFP (S. cerevisiae) (UniProt P11433).
T2 sequence: T1 sequence
In words: co-IP; Cdc24-GFP recovered with GFP-TRAP_MA beads (1 h, 4 °C) from crude extracts of nocodazole-arrested and logarithmically growing cells; IP-buffer 50 mM Tris pH 7.5, 150 mM NaCl, 1% NP-40; immunoblot with antibodies against GFP or Ras2.

Substitutions are numbered along the chain they refer to. In names and notes the source's numbering stands. Results are given in words; binding and its absence hold for the method and conditions named. For some of these results: In cells and extracts the contact can be indirect. Some entries that bind do so weakly or less than the wild type. Tags and fused reporters may be left off the sequences shown.

B1: B42AD-HA-Ras2 wild type (two-hybrid prey) (protein, UniProt P01120 1-322)
chain: MPLNKSNIREYKLVVVGGGGVGKSALTIQLTQSHFVDEYDPTIEDSYRKQVVIDDEVSILDILDTAGQEEYSAMREQYMRNGEGFLLVYSITSKSSLDELMTYYQQILRVKDTDYVPIVVVGNKSDLENEKQVSYQDGLNMAKQMNAPFLETSAKQAINVEEAFYTLARLVRDEGGKYNKTLTENDNSKQTSQDTKGSGANSVPRNSGGHRKMSNAANGKNVNSSTTVVNARNASIESKTGLAGNQATNGKTQTDRTNIDNSTGQAGQANAQSANTVNNRVNNNSKAGQVSNAKQARKQQAAPGGNTSEASKSGSGGCCIIS
On to B1, for which the binding result in assay [1] is listed as “binds”.

B2: endogenous Ras2 (protein, UniProt P01120 1-322)
chain: B1 chain
Take B2: the binding entry in assay [2] is “binds”.

B3: B42AD-HA-Ras2-S24N, dominant negative (two-hybrid prey) (protein, UniProt P01120 1-322)
chain: B1 chain with S24N
Regarding B3, in assay [1], the binding result was “no binding”.

B4: B42AD-HA-Ras2-G19V, constitutively active (two-hybrid prey) (protein, UniProt P01120 1-322)
chain: B1 chain with G19V
With B4, the binding entry in assay [1] is reported as “binds”.
